Activity and solubility data for one compound are collected here from ChEMBL document CHEMBL5053556, “Design, Synthesis, and Biological Evaluation of a Novel Series of Teriflunomide Derivatives as Potent Human Dihydroorotate Dehydrogenase Inhibitors for Malignancy Treatment” (J Med Chem, 2021).

Broadly, the solubility is how much of the substance goes into solution per volume.

Molecules are shown by their SMILES. Values after ≈ are worked out from the molar mass of the structure shown.

In one series the test system is Raji. The series can be described thus: Antiproliferative activity against human Raji cells assessed as cell growth inhibition at 0.06 uM incubated for 96 hrs by MTT assay. Type of series: functional. Set-up: scale not given: the % may be the effect or the level left.
The nature of another series: physchem. The note with it: buffer.

Consider `C/C(O)=C(\C#N)C(=O)Nc1cc(O[C@@H](C)C(F)(F)F)c(C(=O)Nc2c(F)cccc2F)cc1F`, for which the Activity in the series with Raji is recorded as 20.1%. In the series “physchem”, this compound showed a solubility of 20.1 mg/mL (≈ 41.2 mM).
